Measurements from PubChem BioAssay AID587 (National Center for Advancing Translational Sciences (NCATS), 2007).
The campaign covered roughly 59,000 compounds. About 35 (0.06%) were called active. Inconclusive results, whose numbers are uncertain, are shown with a selection of clear calls. Rule as the data show it: active = max dye-equivalent concentration above about 10 nM; inconclusive = between about 1.1 nM and that limit; inactive = weaker than that.

Experiment: qHTS Assay for Spectroscopic Profiling in Texas Red Spectral Region
Conditions: Compound fluorescence, Texas Red channel, 547/618 nm; hits give high values
In short: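 Dye-equivalent concentrations come from scaling compound signal (ex 547, em 618 nm) to six Texas Red standard concentrations run on every plate, after 15 min room-temperature incubation in pH 8.0 Tris (100 mM).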

Row | SMILES | max dye-equivalent concentration
1 | O=C(O)c1cc(=O)[nH]c(=S)[nH]1 | inconclusive: 1.1 nM
2 | COc1ccc(CCNS(=O)(=O)c2ccc(C3CNC(=O)C3)cc2)cc1OC (stereo unspecified) | inactive
3 | O=[N+]([O-])c1cccc(/C=N\Nc2ccc3ccccc3n2)c1O | inactive
4 | COc1cccc(-c2cc(C(=O)Nc3cc(C)n(Cc4ccc(Cl)cc4)n3)no2)c1 | inconclusive: 1.7 nM
5 | C=C[C@@](C)(O)CC[C@H]1[C@]2(C)CCCC(C)(C)[C@H]2CC[C@]1(C)O | inactive
6 | CC1=CC(C)(C)N=C(Nc2ccc(C)cc2)S1 | inconclusive: 1.9 nM
7 | Cc1cc(C)c(S(=O)(=O)n2nc(C)c(Br)c2C)c(C)c1 | inconclusive: 1.2 nM
8 | CCOC(=O)c1cc2sccc2n1CC(=O)N1CCc2ccccc21 | inconclusive: 1.8 nM
9 | CC(=O)Nc1ccc(N2CCN(C(C)=O)CC2)cc1 | inconclusive: 1.1 nM
10 | Nc1ncnc2c1nc(Sc1ccc(Cl)cc1)n2[C@@H]1O[C@H]2COP(=O)(O)O[C@@H]2[C@H]1O | inconclusive: 1.1 nM
11 | CCc1ccc(OCCCC(=O)O)c(Br)c1 | inconclusive: 1.2 nM
12 | Cn1c(SCC(=O)N2CCCc3ccccc32)nnc1-c1c[nH]c2ccccc12 | inconclusive: 1.5 nM
13 | COC(=O)N1CCC2(CCN(C(=O)Nc3ccc(OC)cc3)CC2)CC1 | inactive
14 | O=C(OCC(=O)N1CCN(C(=O)c2ccco2)CC1)c1ccccc1C(=O)c1ccccc1 | inconclusive: 1.1 nM
15 | COC(=O)C1C(=O)c2c(n[nH]c2C)CC1(C)C (stereo unspecified) | inconclusive: 1.7 nM
16 | Cc1onc(-c2c(F)cccc2Cl)c1C(=O)NCCc1ccc(S(N)(=O)=O)cc1 | inconclusive: 1.2 nM
17 | COc1ccc(CCn2c(N)c(C(=O)NCc3ccco3)c3nc4ccccc4nc32)cc1OC | inconclusive: 1.4 nM
18 | Cc1cc(F)ccc1S(=O)(=O)Nc1ccccc1C(=O)Nc1ccc2[nH]c(=O)[nH]c2c1 | inconclusive: 1.2 nM
19 | Cc1ccc2cc(CN(CCCN(C)C)C(=O)NCc3ccccc3)c(=O)[nH]c2c1C | inconclusive: 1.2 nM
20 | Nc1c(S(=O)(=O)c2cccs2)c2nc3ccccc3nc2n1Cc1ccc2c(c1)OCO2 | inconclusive: 1.8 nM
21 | CCOC(=O)c1oc2ccccc2c1NC(=O)c1cccs1 | inconclusive: 1.4 nM
22 | c1cncc(-c2nn3c(-c4ccncc4)nnc3s2)c1 | inconclusive: 1.9 nM

Row | SMILES | max dye-equivalent concentration
23 | CN1C(=O)c2ccc(NC(=O)C3CCCCC3)cc2C1=O | inconclusive: 1.6 nM
24 | COc1ccc(OC)c(/C=c2\sc3nc(-c4cccs4)nn3c2=O)c1 | inactive
25 | COc1cc(OC)c(NC(=O)Nc2ccc(OC)c(OC)c2)cc1Cl | inconclusive: 1.5 nM
26 | O=C(CCS(=O)(=O)c1cc(Br)cc2c1N(C(=O)C1CC1)CC2)NCc1ccco1 | inconclusive: 1.5 nM
27 | Cc1ccc2cc(CN(C(=O)c3ccco3)c3ccccc3C)c(=O)[nH]c2c1 | inconclusive: 1.3 nM
28 | CCOC(=O)c1c(C)[nH]c(C)c1C(=O)CSc1nnc(-c2ccco2)n1Cc1ccccc1 | inconclusive: 1.1 nM
29 | O=C(O)CSC(NC(=O)c1cccnc1)(C(F)(F)F)C(F)(F)F | inconclusive: 1.2 nM
30 | Cc1ccc(-n2nc(C)c3c(-c4cccs4)c(C#N)c(N)nc32)cc1 | inconclusive: 1.2 nM
31 | COc1ccc(CNc2nc3c(c(C(F)(F)F)n2)CCCCC3)cc1 | inconclusive: 1.1 nM
32 | Cc1cc2ncn(/N=C/c3cccnc3)c2cc1C | inconclusive: 2.1 nM
33 | CCOC(=O)CSc1nnc(N)s1 | inconclusive: 1.2 nM
34 | NC(N)=[N+]1CCc2ccccc2C1 | inactive
35 | O=C(c1cc2ncc(Br)cn2n1)N1CCN(C(=O)c2ccco2)CC1 | inconclusive: 2.2 nM
36 | Cc1ccccc1Nc1nc(N)nc(COC(=O)CCS(=O)(=O)c2ccccc2)n1 | inconclusive: 1.3 nM
37 | Cc1cc(C)n(-c2ccc(C(=O)Oc3ccc4c(c3)OCO4)cc2)n1 | inconclusive: 1.7 nM
38 | Cc1cc(C)c(C#N)c(SCC(=O)N2CCCCC2)n1 | inconclusive: 1.7 nM
39 | Cc1ccc(C(=O)Nc2cnc3sc(C)nn3c2=O)cc1 | inconclusive: 1.2 nM
40 | CCCSc1nc2c(c(=O)[nH]c(=O)n2C)n1Cc1ccc(C)cc1 | inconclusive: 1.1 nM
41 | C/C=C1\C(=O)C[C@@H]2[C@@H]3CCC4=CC(=O)CC[C@@]4(C)[C@H]3CC[C@@]12C | inconclusive: 1.3 nM
42 | CCOC(=O)c1cnc(-n2cc(C)cn2)nc1Nc1ccccc1OCC | inconclusive: 1.3 nM
43 | CCCCc1c(O)n2c(nc3ccccc32)[nH]c1=O | inconclusive: 2.1 nM
44 | NC(=O)C1CCN(CC(=O)Nc2ccccn2)CC1 | inconclusive: 1.4 nM

Row | SMILES | max dye-equivalent concentration
45 | CCn1c(CNC(=O)c2ccc3c(c2)OCO3)nnc1SCC(=O)Nc1cc(C)ccc1OC | inconclusive: 1.3 nM
46 | COc1cccc(CNS(=O)(=O)c2cn(C)cn2)c1 | inconclusive: 1.7 nM
47 | COc1ccc(N2CCN(c3ncnc4c3cnn4-c3ccc(C)cc3C)CC2)cc1 | inconclusive: 1.3 nM
48 | CCC1(CC)C(=O)NC(=O)NC1=NCCc1c[nH]c2ccccc12 | inconclusive: 1.1 nM
49 | O=C(Nc1ccc2c(c1)nc1n2CCOC1)C1CCCCC1 | inconclusive: 1.1 nM
50 | COc1ccccc1N1CCN(C(=O)CCNS(=O)(=O)c2ccc(Br)s2)CC1 | inconclusive: 2 nM
51 | N#Cc1nc(-c2ccccc2F)oc1NCCc1ccccn1 | inconclusive: 1.1 nM
52 | CCSc1cc(C2C(C(=O)OC)=C(C)NC3=C2C(=O)CCC3)c(C)o1 (stereo unspecified) | inconclusive: 1.1 nM
53 | O=C(Nc1cnn(Cc2ccc(F)cc2)c1)c1cnccn1 | inconclusive: 1.1 nM
54 | O=C1CCC(=O)c2oc3ccccc3c2N1 | inconclusive: 1.2 nM
55 | CSc1ccc(-c2c(C#N)c(N)nc3c2c(C)nn3-c2ccccc2)cc1 | inactive
56 | Cc1nn(-c2cc(C)c3ccccc3n2)c2c1CCC2 | inconclusive: 1.2 nM
57 | COCC(=O)Nc1nc2ccc(S(C)(=O)=O)cc2s1 | inconclusive: 1.5 nM
58 | COc1cc(NC(=O)CS(=O)(=O)c2ccccc2)cc(OC)c1OC | inconclusive: 1.1 nM
59 | CC(NS(=O)(=O)c1ccccc1)C(c1cccs1)N1CCN(c2ccccc2)CC1 (stereo unspecified) | inconclusive: 1.5 nM
60 | c1ccc(-c2noc(COc3ccc4c(c3)OCO4)n2)cc1 | inconclusive: 1.3 nM
61 | CC(C(=O)NCc1ccccc1)N1C(=O)C2CC=C(Cl)CC2C1=O (stereo unspecified) | inconclusive: 1.4 nM
62 | C=CCn1c(COc2ccc(F)cc2)nnc1SCC(=O)NC(=O)NCc1ccco1 | inconclusive: 1.2 nM
63 | Cc1ccc(NC(=O)CSc2nnc([C@@H]3CCCN3C(=O)OC(C)(C)C)o2)c(C)c1 | inconclusive: 1.1 nM
64 | COc1cc(C(=O)OCC(=O)c2cc(C)n(C)c2C)cc(NC(=O)c2ccco2)c1OC | inconclusive: 1.8 nM
65 | Cc1ccc(C2=C(Cl)C(=O)C(c3ccc(C)cc3)=C(Cl)C2=O)cc1 | inconclusive: 1.7 nM
66 | O=C(COC(=O)CSCC(=O)N1CCCCC1)NCc1ccc(F)cc1 | inconclusive: 1.6 nM

Row | SMILES | max dye-equivalent concentration
67 | O=C(CSc1ncc(-c2ccc(F)cc2)n1Cc1ccco1)Nc1nccs1 | inconclusive: 1.6 nM
68 | Cn1cccc1C(=O)NC(=O)COC(=O)Cc1coc2ccc3ccccc3c12 | inactive
69 | Cc1ccc(NC(=O)CSc2nnc(CSc3nc(C)cc(C)n3)n2Cc2ccco2)c(C)c1 | inconclusive: 2.6 nM
70 | N=c1c2c(-c3ccccc3)c(-c3ccccc3)oc2ncn1CCCN1CCOCC1 | inconclusive: 1.6 nM
71 | O=C(Cn1cc(C(F)(F)F)ccc1=O)N1CCN(S(=O)(=O)c2ccc(Cl)cc2)CC1 | inconclusive: 1.9 nM
72 | COc1ccc2c(c1)cc1n2CCN=C1N | inconclusive: 1.7 nM
73 | CCCCCCc1cc2cc(-c3nnc(-c4ccccc4O)o3)c(=O)oc2cc1O | inactive
74 | O=C(O)CC1CCS(=O)(=O)C1 (stereo unspecified) | inconclusive: 1.5 nM
75 | O=C(CCN1C(=O)C2C3C=CC(C3)C2C1=O)Nc1ccc2c(c1)OCO2 (stereo unspecified) | inactive
76 | COc1cc(C)c(C(C)C)cc1S(=O)(=O)N1CCOCC1 | inconclusive: 2.2 nM
77 | O=c1c2cc(Cl)ccc2[nH]c(=S)n1Cc1ccco1 | inconclusive: 1.2 nM
78 | CC(C)(C)c1ccc(S(=O)(=O)n2c(CN3CCOCC3)nc3ccccc32)cc1 | inconclusive: 2.2 nM
79 | Cc1cc(C)c2c(CC(=O)N(CCC#N)Cc3cccnc3)coc2c1 | inconclusive: 1.5 nM
80 | CCCCn1c(SCC(=O)NCc2ccco2)nnc1-c1ccco1 | inconclusive: 1.6 nM
81 | CNc1oc(-c2cccc3ccccc23)nc1C#N | inconclusive: 2 nM
82 | O=C(OCCN1CCCCC1)c1c[nH]c2ccccc12 | inconclusive: 1.2 nM
83 | COC(=O)C1=C(N)Oc2cc(C)n(C)c(=O)c2C1c1ccc(Cl)c(Cl)c1 (stereo unspecified) | inconclusive: 2 nM
84 | O=C(O)C1CCCCC1C(=O)Nc1cnn(Cc2ccccc2)c1 (stereo unspecified) | inconclusive: 2.2 nM
85 | CCOc1cccc(-c2nnc(SCC(=O)Nc3cccc(OC)c3)n2N)c1 | inconclusive: 1.7 nM
86 | CCOC(=O)c1oc2cccc(OC(C)=O)c2c1C | inconclusive: 1.1 nM

An excerpt from above in order of length of the SMILES, ascending:
Row | SMILES | max dye-equivalent concentration
80 | CCCCn1c(SCC(=O)NCc2ccco2)nnc1-c1ccco1 | inconclusive: 1.6 nM
66 | O=C(COC(=O)CSCC(=O)N1CCCCC1)NCc1ccc(F)cc1 | inconclusive: 1.6 nM
30 | Cc1ccc(-n2nc(C)c3c(-c4cccs4)c(C#N)c(N)nc32)cc1 | inconclusive: 1.2 nM
2 | COc1ccc(CCNS(=O)(=O)c2ccc(C3CNC(=O)C3)cc2)cc1OC (stereo unspecified) | inactive
